This passage reports T/C and survivor count results from PubChem BioAssay AID192 (DTP/NCI, 2004).

The list is a part of this screen's results and no random one: it gathers tests that were run many times, whatever their T/C, doses with no T/C, and many T/C values between a quarter and a half above the control. Further doses and runs are listed elsewhere. T/C: endpoint of the treated group in % of that of the vehicle group. Some doses have a count of surviving animals in place of a T/C: the source files T/C as zero there, which appears to mark a toxic dose or a test without result, not a measured value. Some survivor counts are full or nearly so, which does not show that the dose was tolerated: the source hardly ever lists a survival T/C far under the control, and the zero likely stands for such cases as well. Survivors were counted at the toxicity check, usually on the fifth day, unless a day is given; later deaths do not show. Schedule codes are those of the source, read here as Q, the interval in days (D) or hours (H), X, the number of doses. Some entries hold several experiments; their values stand side by side, smallest first. For survival time, this PubChem deposit counts one and a half times the control or more as active, and values a quarter to a half above the control carry no call in these data; other NCI protocols may use other cut-offs. Some T/C values are followed by the survivors on the day toxicity was checked, most often the fifth; without a count, all were alive then.

The test system of the assay is BDF1 mice, B16 melanoma ip, median survival T/C. Put plainly: NCI In Vivo Anticancer Drug Screen. Data for tumor model B16 Melanoma (intraperitoneal) in B6D2F1 (BDF1) mice. Particulars: T/C endpoint: median survival time, higher T/C = longer survival. Summed up: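 Mice with transplantable tumors; drug vs vehicle groups; endpoint survival or tumor size; value = T/C.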

Where [1] appears, read: dose: 200.0 mg/kg/injection, schedule: Q01DX009 (ip), vehicle: saline with Tween-80.
Setting [2] is: dose: 400.0 mg/kg/injection, schedule: Q01DX009 (ip), vehicle: saline with Tween-80.

With `CC1OC(OC2CC(O)(C(=O)CO)Cc3c(O)c4c(c(O)c32)C(=O)c2ccccc2C4=O)CC(N)C1O` (stereo not drawn), the T/C (dose: 0.19 mg/kg/injection, schedule: Q01DX001 (ip), vehicle: water) is 130 % of control; the T/C (dose: 0.38 mg/kg/injection, schedule: Q01DX001 (ip), vehicle: water, evaluated on day 50) is 114 % of control; the T/C (dose: 0.38 mg/kg/injection, schedule: Q01DX001 (ip), vehicle: water, evaluated on day 60) is reported as 164, 166, 173 % of control; the T/C (dose: 0.75 mg/kg/injection, schedule: Q01DX001 (ip), vehicle: water, evaluated on day 50) is 110 % of control; the T/C (dose: 0.75 mg/kg/injection, schedule: Q01DX001 (ip), vehicle: water, evaluated on day 60) was 141, 195, 209 % of control; the T/C (dose: 1.5 mg/kg/injection, schedule: Q01DX001 (ip), vehicle: water, evaluated on day 50) is 105 % of control. Further, the T/C is 250 and 268 % of control (dose: 1.5 mg/kg/injection, schedule: Q01DX001 (ip), vehicle: water, evaluated on day 60); 133 % of control (dose: 216.0 micrograms/kg/injection, schedule: Q01DX004 (ip), vehicle: other); 149 % of control (dose: 216.0 micrograms/kg/injection, schedule: Q04DX003 (ip), vehicle: water); 126 % of control (dose: 360.0 micrograms/kg/injection, schedule: Q01DX004 (ip), vehicle: other). For the same compound, the survivor count by setting is: (dose: 1.5 mg/kg/injection, schedule: Q01DX001 (ip), vehicle: water) 10 of 10; (dose: 3.0 mg/kg/injection, schedule: Q01DX001 (ip), vehicle: water) 6 of 10; (dose: 6.0 mg/kg/injection, schedule: Q01DX001 (ip), vehicle: water) 1 of 10, 9 of 10, 10 of 10; (dose: 1000.0 micrograms/kg/injection, schedule: Q01DX004 (ip), vehicle: other) 10 of 10.

Regarding `COc1cc2c(c(OC)c1O)-c1ccc(OC)c(=O)cc1[C@@H](NC(=O)C(F)(F)F)CC2`, the T/C (dose: 2.5 mg/kg/injection, schedule: Q01DX009 (ip), vehicle: Klucel (hydroxypropylcellulose) (HPC)) is 125 % of control. Besides, the survivor count is 9 of 10 (dose: 5.0 mg/kg/injection, schedule: Q01DX009 (ip), vehicle: Klucel (hydroxypropylcellulose) (HPC)); 8 of 10 and 10 of 10 (dose: 10.0 mg/kg/injection, schedule: Q01DX009 (ip), vehicle: Klucel (hydroxypropylcellulose) (HPC)); 6 of 10 (dose: 20.0 mg/kg/injection, schedule: Q01DX009 (ip), vehicle: Klucel (hydroxypropylcellulose) (HPC)).

For `CN(C)CCOC(c1ccccc1)c1ccccc1`, the survivor count is listed as 10 of 10 (dose: 25.0 mg/kg/injection, schedule: Q01DX009 (ip), vehicle: saline) and 10 of 10 (dose: 50.0 mg/kg/injection, schedule: Q01DX009 (ip), vehicle: saline).

Consider `COc1cc2c(cc1OC)C1CNC(=O)C1C(c1ccccc1)C2` (stereo not drawn), for which the survivor count reads like this: (dose: 30.0 mg/kg/injection, schedule: Q01DX009 (ip), vehicle: Klucel (hydroxypropylcellulose) (HPC)) 10 of 10; (dose: 75.0 mg/kg/injection, schedule: Q01DX009 (ip), vehicle: Klucel (hydroxypropylcellulose) (HPC)) 10 of 10; (dose: 150.0 mg/kg/injection, schedule: Q01DX009 (ip), vehicle: Klucel (hydroxypropylcellulose) (HPC)) 10 of 10.

`CC1(C)N=C(N)N=C(N)N1c1ccc(OCCCNC(=O)Nc2cccc(S(=O)(=O)F)c2)c(Cl)c1`: under “dose: 100.0 mg/kg/injection, schedule: Q01DX009 (ip), vehicle: saline”, the T/C is 130 % of control.

Take `COc1ccc(Nc2c3ccccc3nc3ccccc23)cc1`: the T/C is 125 % of control (dose: 25.0 mg/kg/injection, schedule: Q01DX009 (ip), vehicle: saline with Tween-80); 126 and 129 % of control [9 of 10 alive] (dose: 50.0 mg/kg/injection, schedule: Q01DX009 (ip), vehicle: saline with Tween-80). The survivor count is recorded as 9 of 10 (dose: 100.0 mg/kg/injection, schedule: Q01DX009 (ip), vehicle: saline with Tween-80); 2 of 10 under setting [1]; 0 of 10 under setting [2].

As to `CCCCCCCCCCCCCCCCCCOCC(CO)OC` (stereo not drawn), the survivor count under setting [2] is listed as 2 of 10.

`CC(C)([NH-])CO.CC(C)([NH-])CO.[Cl][Cd][Cl]`: the survivor count is reported as 10 of 10 (dose: 2.5 mg/kg/injection, schedule: Q01DX009 (ip), vehicle: saline); 10 of 10 (dose: 5.0 mg/kg/injection, schedule: Q01DX009 (ip), vehicle: saline); 9 of 10 (dose: 10.0 mg/kg/injection, schedule: Q01DX009 (ip), vehicle: saline).

As for `COc1cc(C(C)(C)C)cc(OC)c1C(O)(c1c(OC)cc(C(C)(C)C)cc1OC)c1c(OC)cc(C(C)(C)C)cc1OC`, the survivor count under setting [1] is 3 of 10.

`CCOC(=O)c1c[nH]c2oc(/C=N/N3CC(CN4CCOCC4)OC3=O)cc2c1=O` (stereo not drawn): the T/C (dose: 200.0 mg/kg/injection, schedule: Q01DX009 (ip), vehicle: saline) was 129 % of control. In addition, the survivor count (dose: 400.0 mg/kg/injection, schedule: Q01DX009 (ip), vehicle: saline) is listed as 9 of 10.

`NC(Cc1c[nH]c2ccc(N(CCCl)CCCl)cc12)C(=O)O` (stereo not drawn): where the note is “dose: 0.13 mg/kg/injection, schedule: Q01DX009 (ip), vehicle: saline with Tween-80”, the T/C was 135 % of control. Further, the survivor count (dose: 4.0 mg/kg/injection, schedule: Q01DX009 (ip), vehicle: saline with Tween-80) is given as 6 of 6.

As for `O=S(=O)(Nc1ccccc1)c1ccc(C2CC3(Cl)C(Cl)=C(Cl)C2(Cl)C3(Cl)Cl)cc1` (stereo not drawn), the survivor count (dose: 400.0 mg/kg/injection, schedule: Q01DX009 (ip), vehicle: Klucel (hydroxypropylcellulose) (HPC)) is 10 of 10.

Take `CN1CCN(CCC=C2c3ccccc3Sc3ccc(S(=O)(=O)N(C)C)cc32)CC1`: the survivor count (dose: 6.25 mg/kg/injection, schedule: Q01DX009 (ip), vehicle: saline) was 10 of 10.

With `Cc1ccc(NC(=O)c2ccccc2)cc1[As]=[As]c1cc(NC(=O)c2ccccc2)ccc1C` (stereo not drawn), the survivor count by setting is: (dose: 0.6 mg/kg/injection, schedule: Q01DX009 (ip), vehicle: saline with Tween-80) 9 of 10; (dose: 0.62 mg/kg/injection, schedule: Q04DX003 (ip), vehicle: Klucel (hydroxypropylcellulose) (HPC)) 10 of 10; (dose: 1.25 mg/kg/injection, schedule: Q01DX009 (ip), vehicle: saline with Tween-80) 10 of 10; (dose: 1.25 mg/kg/injection, schedule: Q04DX003 (ip), vehicle: Klucel (hydroxypropylcellulose) (HPC)) 1 of 10 and 10 of 10; (dose: 1.25 mg/kg/injection, schedule: Q04DX003 (ip), vehicle: saline with Tween-80) 10 of 10; (dose: 2.5 mg/kg/injection, schedule: Q01DX009 (ip), vehicle: saline with Tween-80) 10 of 10. Further, the survivor count is 10 of 10 (dose: 2.5 mg/kg/injection, schedule: Q04DX003 (ip), vehicle: Klucel (hydroxypropylcellulose) (HPC)); 10 of 10 (dose: 2.5 mg/kg/injection, schedule: Q04DX003 (ip), vehicle: saline with Tween-80); 10 of 10 (dose: 5.0 mg/kg/injection, schedule: Q01DX009 (ip), vehicle: saline with Tween-80); 10 of 10 (dose: 5.0 mg/kg/injection, schedule: Q04DX003 (ip), vehicle: Klucel (hydroxypropylcellulose) (HPC)); 10 of 10 (dose: 5.0 mg/kg/injection, schedule: Q04DX003 (ip), vehicle: saline with Tween-80); 0 of 10 (dose: 10.0 mg/kg/injection, schedule: Q04DX003 (ip), vehicle: Klucel (hydroxypropylcellulose) (HPC)). Moreover, the survivor count (dose: 10.0 mg/kg/injection, schedule: Q04DX003 (ip), vehicle: saline with Tween-80) is 2 of 10 and 4 of 10.
